Data taken from PubChem BioAssay AID2551 (National Center for Advancing Translational Sciences (NCATS), 2010).
Screen size: about 310,000 compounds; about 17,000 (5.5%) were called active. This list was built around the results that the source calls inconclusive (neither active nor inactive); the mix of calls is not that of the screen. The call rests on the fitted dose curve; in most records, active means well fitted inhibition curve with a large enough effect; inconclusive means small, poorly fitted or top-dose-only effect, or effect the other way; inactive means no such curve, though single readings can be large or run the other way. Where the call is inconclusive, the potency comes from a doubtful curve fit.

The chains behind the UniProt entries cited, without tags or fusion partners. Where a name states a change or a piece, a line headed by the entry shows the natural chain unless it says otherwise.
UniProt P51450: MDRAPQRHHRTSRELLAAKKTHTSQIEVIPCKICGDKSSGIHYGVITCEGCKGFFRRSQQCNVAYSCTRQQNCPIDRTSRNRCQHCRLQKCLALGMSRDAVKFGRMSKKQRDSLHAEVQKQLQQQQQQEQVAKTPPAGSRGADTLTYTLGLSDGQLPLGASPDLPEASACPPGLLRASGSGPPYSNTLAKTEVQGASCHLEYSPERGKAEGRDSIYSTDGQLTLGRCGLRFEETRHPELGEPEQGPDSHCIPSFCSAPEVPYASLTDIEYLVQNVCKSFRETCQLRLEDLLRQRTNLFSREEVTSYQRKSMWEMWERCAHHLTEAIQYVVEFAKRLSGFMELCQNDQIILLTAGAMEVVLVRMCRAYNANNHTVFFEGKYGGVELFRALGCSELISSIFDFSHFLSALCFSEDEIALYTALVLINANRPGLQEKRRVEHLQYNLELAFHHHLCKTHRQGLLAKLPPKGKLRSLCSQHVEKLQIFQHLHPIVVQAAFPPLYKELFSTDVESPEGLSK

Molecular target: Nuclear receptor ROR-gamma (Mus musculus) (UniProt P51450)
Assay: qHTS for inhibitors of ROR gamma transcriptional activity; further: nearly all actives have a fitted effect of over 60% in size
Conditions: Drosophila S2 Gal4-RORgamma UAS-luciferase reporter, 20 h; activity change, negative = inhibition: at 53.6 µM (top of the series)
Procedure, shortened: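 Stable Schneider cell line, Gal4 DNA-binding domain fused to ROR gamma, UAS-luciferase. Cmpd 1 hr RT → CuSO4 700 uM final → 20 hr RT → luciferase reagent 10 min → luminescence.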
On the % scale 0 is the no-effect control and ±100 the full control effect; potency means the concentration at half of the fitted maximal effect.

Structure (SMILES) | Potency | activity change, negative = inhibition
CC(=O)c1cccc(OCc2cc(C(=O)N(C)Cc3ccc(C)o3)no2)c1 | inconclusive: 35.5 µM [inhibitor, single point] | 
CCn1c(=O)c(C(=O)CN2CCN(S(=O)(=O)c3cc(C)ccc3C)CC2)c(N)n(Cc2ccccc2)c1=O | inconclusive: 25.1 µM [activator, single point] | 
CC(C)OCCCNc1ncnc2c1[nH]c1ccc(F)cc12 | inconclusive: 31.6 µM [inhibitor, single point] | 
O=C(COC(=O)c1cccnc1Cl)Nc1ccc2c(c1)OCCO2 | inconclusive: 35.5 µM [activator, single point] | 
Cc1cc(NC(=O)Cn2nc(-c3cccs3)ccc2=O)cc(C)c1Br | inconclusive: 20 µM [activator, single point] | 
CCOC(=O)C1(CC2CCCCO2)CCN(Cc2nccn2-c2ccc(OC)cc2)CC1 (stereo unspecified) | active: 7.08 µM | 
O=C(OCc1nc2scc(-c3ccccc3)c2c(=O)[nH]1)c1cccc([N+](=O)[O-])c1 |  | inactive: -15.4%
COCCN(CCOc1cc(C)cc(C)c1)Cc1ccc(Cl)cc1 |  | inactive: -0.287%
CCOC(=O)c1ccc(NC(=S)NCCC2=CCCCC2)cc1 | active: 2.82 µM | 
COc1ccc(Cc2nnc(SCC(=O)c3ccc(OC)cc3)o2)cc1 |  | inactive: 1.58%
CCOc1cccc(/C=C/c2ccc3ccccc3n2)c1OC(C)=O | active: 3.98 µM | 
CCOc1cc(N2CCOCC2)c(OCC)cc1NC(=O)CC12CC3CC(CC(C3)C1)C2 |  | inactive: -1.33%
Nn1c(Nc2ccccc2)nc2sc3c(c2c1=O)CCCC3 | inconclusive: 15.8 µM [inhibitor, single point] | 
COC(=O)c1cc(S(=O)(=O)N2CCCC2)c(Cl)cc1Cl |  | inactive: -6.93%
CC1C=CCC2C(=O)N(c3cccc(C(=O)Nc4ccc(Br)cc4)c3)C(=O)C12 (stereo unspecified) | inconclusive: 12.6 µM [activator, single point] | 
CCC12CN3CC(CC)(CN(C1)C3c1c(O)ccc3ccccc13)C2=O (stereo unspecified) | inconclusive: 35.5 µM [inhibitor, single point] | 
Cc1ccc(NS(=O)(=O)c2ccc3[nH]c(=O)sc3c2)cc1 |  | inactive: 31.7%
CCOc1ccc(S(=O)(=O)N2CCCC(C(=O)N3CCOCC3)C2)cc1Cl (stereo unspecified) | inconclusive: 14.1 µM [activator, single point] | 
COc1ccc(NC(C)=O)cc1NC(C)c1nc2sc(C)c(C)c2c(=O)[nH]1 (stereo unspecified) | active: 10 µM | 
COCCN=c1scc(-c2ccco2)n1/N=C/c1ccc(O)c(O)c1O | inconclusive: 2 µM [inhibitor, partial curve] | 
Nc1sc(-c2ccccc2)cc1C(=O)O | inconclusive: 11.2 µM [inhibitor, single point] | 
N#Cc1cccc(-c2ccc3ncnc(NCc4cccs4)c3c2)c1 | inconclusive: 35.5 µM [inhibitor, single point] | 
O=C(Cc1ccc(S(=O)(=O)N2CCCCC2)s1)Nc1ccc(F)c(F)c1 | inconclusive: 22.4 µM [activator, single point] | 

13 entries from above in another layout.
Structure (SMILES)	Potency	activity change, negative = inhibition
CCn1c(=O)c(C(=O)CN2CCN(S(=O)(=O)c3cc(C)ccc3C)CC2)c(N)n(Cc2ccccc2)c1=O	inconclusive: 25.1 µM [activator, single point]	
CC(C)OCCCNc1ncnc2c1[nH]c1ccc(F)cc12	inconclusive: 31.6 µM [inhibitor, single point]	
O=C(COC(=O)c1cccnc1Cl)Nc1ccc2c(c1)OCCO2	inconclusive: 35.5 µM [activator, single point]	
Cc1cc(NC(=O)Cn2nc(-c3cccs3)ccc2=O)cc(C)c1Br	inconclusive: 20 µM [activator, single point]	
CCOC(=O)C1(CC2CCCCO2)CCN(Cc2nccn2-c2ccc(OC)cc2)CC1 (stereo unspecified)	active: 7.08 µM	
CCOC(=O)c1ccc(NC(=S)NCCC2=CCCCC2)cc1	active: 2.82 µM	
COc1ccc(Cc2nnc(SCC(=O)c3ccc(OC)cc3)o2)cc1		inactive: 1.58%
CCOc1cccc(/C=C/c2ccc3ccccc3n2)c1OC(C)=O	active: 3.98 µM	
CCOc1cc(N2CCOCC2)c(OCC)cc1NC(=O)CC12CC3CC(CC(C3)C1)C2		inactive: -1.33%
CC1C=CCC2C(=O)N(c3cccc(C(=O)Nc4ccc(Br)cc4)c3)C(=O)C12 (stereo unspecified)	inconclusive: 12.6 µM [activator, single point]	
COc1ccc(NC(C)=O)cc1NC(C)c1nc2sc(C)c(C)c2c(=O)[nH]1 (stereo unspecified)	active: 10 µM	
Nc1sc(-c2ccccc2)cc1C(=O)O	inconclusive: 11.2 µM [inhibitor, single point]	
O=C(Cc1ccc(S(=O)(=O)N2CCCCC2)s1)Nc1ccc(F)c(F)c1	inconclusive: 22.4 µM [activator, single point]	

Going on with the list:

Structure (SMILES) | Potency | activity change, negative = inhibition
CCOC(=O)CCNC(=O)N1CCCC(CNS(=O)(=O)c2cccs2)C1 (stereo unspecified) |  | inactive: 17.4%
CNS(=O)(=O)c1ccc(NC(=O)c2csc(C)c2)cc1 | inconclusive: 12.6 µM [activator, partial curve] | 
COc1cc(NC(=S)NCCc2ccccc2)c(OC)cc1NC(=O)C(C)C | inconclusive: 12.6 µM [inhibitor, single point] | 
Cc1c(C(=O)NCc2ccccc2)c(-c2ccccc2)nn1-c1ccccc1 | inconclusive: 35.5 µM [inhibitor, single point] | 
COc1cccc(/C=N/NC(=O)C(=O)N2CCCC2)c1O | inconclusive: 31.6 µM [inhibitor, single point] | 
C/C(CC(=O)N1CCCC1)=N\NC(=O)c1cc2ccccc2cc1O | active: 6.31 µM | 
O=C(N[C@H](Cc1cc(=O)[nH]c2ccccc12)C(=O)O)c1ccc(Cl)cc1 |  | inactive: -16.9%
Fc1cccc(Cl)c1/C=C/c1cnc2ccccc2n1 | inconclusive: 5.01 µM [inhibitor, full curve, poor fit] | 
O=C(NCC1CCN(S(=O)(=O)c2ccccc2)CC1)Nc1ccccc1 | inconclusive: 35.5 µM [activator, single point] | 
O=C(Nc1ccccc1O)c1ccccc1O | inconclusive: 35.5 µM [inhibitor, single point] | 
Cc1cc(C)c2nc(SCC(=O)NNC(=O)c3ccco3)c(C)cc2c1 | inconclusive: 35.5 µM [inhibitor, single point] | 
O=C(C1=C(O)C(=O)N(Cc2ccco2)C1c1cccnc1)c1cc2ccccc2o1 (stereo unspecified) |  | inactive: 27.6%
CCOC(=O)c1c(C)[nH]c(C(=O)C(C)OC(=O)c2cccc(OCc3c(C)noc3C)c2)c1C (stereo unspecified) | inconclusive: 15.8 µM [activator, partial curve] | 
O=C(c1ccc(Cl)cc1)c1cn[nH]c1-c1ccccc1O | inconclusive: 6.31 µM [inhibitor, single point] | 
Cc1ccc2[nH]c(C(=O)Nc3ccc(F)cc3)cc2c1 | active: 10 µM | 
CC(=O)Nc1ccc(Oc2sc(C(=O)c3ccccc3)c(N)c2C#N)cc1 |  | inactive: -6.66%
O=C(CC1SC(=Nc2ccc(OC(F)F)cc2)N(CCN2CCOCC2)C1=O)Nc1ccccc1 (stereo unspecified) | inconclusive: 22.4 µM [activator, single point] | 
CC(=O)c1sc(NC(=O)c2cccc3ccccc23)nc1C | inconclusive: 0.251 µM [activator, full curve, poor fit] | 
O=C(NC(=S)NNC(=O)c1ccco1)c1ccccc1 | active: 11.2 µM | 
COCc1cc(C)nc2sc(C(=O)Nc3ccc(C(=O)OC)cc3)c(N)c12 | inconclusive: 1.26 µM [activator, single point] | 
O=C(C1CCCN(S(=O)(=O)c2cccc3cccnc23)C1)N1CCN(c2ccc(F)cc2)CC1 (stereo unspecified) |  | inactive: 31.4%
Cc1ccc(CN(C(=O)c2ccco2)C(C(=O)NC2CCCC2)c2cccnc2)cc1 (stereo unspecified) |  | inactive: -4.29%
CC(Sc1nc(N2CCCCC2)c2c(c1C#N)CCCC2)C(=O)O (stereo unspecified) | inconclusive: 35.5 µM [activator, single point] | 
